Values from PubChem BioAssay AID1259405 (NCATS, 2018).
Here is a random part of about 50,000 reagents. About 4,000 of all reagents (8%) were called active. 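Mouse siRNA library applied to hamster cells; one well for each siRNA.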 Reagents against one gene are numbered here.

Assay: 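Mouse-designed siRNAs used to find CHO productivity engineering targets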 (primary screen)
System: Chinese hamster CHO-K1 ovary cells with stable secreted eGFP expression
Reagent: single siRNA against mouse genes, 0.8 pmol siRNA per well (2 µl of 400 nM stock)
Duration: 3 days
Measured: 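Percent of the per-plate non-targeting control median for intracellular GFP per well by laser scanning cytometry and for cell viability by ATP luminescence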
Reading the numbers: GFP, % of control: higher = more GFP per well, higher productivity; viability (ATP), % of control: higher = more viable cells (more ATP)
Call rule: 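Called active when intracellular GFP, relative to negative control, is at or above 120%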

| GFP, % of control | viability (ATP), % of control | Call | gene | reagent no. |
| --- | --- | --- | --- | --- |
| 82.7 | 67.3 | inactive | Radx | 1 |
| 111 | 120 | inactive | Radx | 2 |
| 26.7 | 16.6 | inactive | Radx | 3 |
| 125 | 83.6 | active | Nf1 | 1 |
| 88.9 | 99.3 | inactive | Nf1 | 2 |
| 29.8 | 42.2 | inactive | Nf1 | 3 |
| 78.9 | 45.4 | inactive | Mak16 | 1 |
| 60.1 | 60.6 | inactive | Mak16 | 2 |
| 73.2 | 64.4 | inactive | Mak16 | 3 |
| 95.9 | 66.6 | inactive | Sec61a1 | 1 |
| 30.3 | 54.3 | inactive | Sec61a1 | 2 |
| 64.1 | 82 | inactive | Sec61a1 | 3 |
| 92.3 | 43.7 | inactive | Dnajb12 | 1 |
| 96.7 | 79.7 | inactive | Dnajb12 | 2 |
| 53.6 | 52 | inactive | Dnajb12 | 3 |
| 76.1 | 70.3 | inactive | Icam1 | 1 |
| 80.2 | 66.9 | inactive | Icam1 | 2 |
| 66.9 | 85.9 | inactive | Ppic | 1 |
| 63.4 | 69.7 | inactive | Ppic | 2 |
| 67.8 | 84.3 | inactive | Ppic | 3 |
| 80.7 | 79.5 | inactive | Dgkg | 1 |
| 90.6 | 144 | inactive | Spsb2 | 1 |
| 74.6 | 62.8 | inactive | Spsb2 | 2 |

6 of these entries, reformatted:
{"gene": "Radx", "reagent no.": 1, "GFP, % of control": 82.7, "viability (ATP), % of control": 67.3, "Call": "inactive"}
{"gene": "Radx", "reagent no.": 2, "GFP, % of control": 111, "viability (ATP), % of control": 120, "Call": "inactive"}
{"gene": "Radx", "reagent no.": 3, "GFP, % of control": 26.7, "viability (ATP), % of control": 16.6, "Call": "inactive"}
{"gene": "Nf1", "reagent no.": 1, "GFP, % of control": 125, "viability (ATP), % of control": 83.6, "Call": "active"}
{"gene": "Nf1", "reagent no.": 2, "GFP, % of control": 88.9, "viability (ATP), % of control": 99.3, "Call": "inactive"}
{"gene": "Nf1", "reagent no.": 3, "GFP, % of control": 29.8, "viability (ATP), % of control": 42.2, "Call": "inactive"}

Additional results:
| GFP, % of control | viability (ATP), % of control | Call | gene | reagent no. |
| --- | --- | --- | --- | --- |
| 69.1 | 63.6 | inactive | Pphln1 | 1 |
| 41.2 | 64.5 | inactive | Pphln1 | 2 |
| 104 | 80.7 | inactive | Pphln1 | 3 |
| 44.5 | 35.8 | inactive | A130050O07Rik | 1 |
| 37.6 | 39.8 | inactive | A130050O07Rik | 2 |
| 91.2 | 86.6 | inactive | A130050O07Rik | 3 |
| 100 | 53.8 | inactive | Abt1 | 1 |
| 122 | 76.1 | active | Abt1 | 2 |
| 75.9 | 80.8 | inactive | Abt1 | 3 |
| 44.5 | 36 | inactive | Slc47a1 | 1 |
| 38.8 | 43.1 | inactive | Slc47a1 | 2 |
| 62.5 | 91.7 | inactive | Slc47a1 | 3 |
